# Test results as given in PubChem BioAssay AID493014 (National Center for Advancing Translational Sciences (NCATS), 2011).
# Some of the results follow. Further columns of the screen follow, without active or inactive calls. Compounds called inactive in the main read-out are mostly missing here. Potencies come from curve fits of mixed quality, noted in brackets.
# Assay: qHTS Assay to Find Inhibitors of Chronic Active B-Cell Receptor Signaling
# Settings: ABC-DLBCL IkBa-CBG/CBR reporter, luminescence ratio (green luciferase fused to IkBa over red control in TMD8 lymphoma cells), 4 h
# In short: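 TMD8 human ABC-DLBCL cells with doxycycline-inducible IκBα–green luciferase fusion and unfused red luciferase, in 0.5% FBS medium; compounds up to 46 uM, 4 h at 37C. Green/red luminescence ratio, filter-overlap corrected, fitted to concentration-response curves.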
# [1] = measured here: CBR red luminescence, cell number
# [2] = measured here: IkBa-CBG green luminescence
smiles,measurement,setting,value
C/C(CC(=O)Nc1cccc(C(F)(F)F)c1)=N/NC(=O)C(=O)NCCO,AC50,[1],"35.5 µM [falling, single point]"
CCC(C)Sc1nc2c(cnn2-c2ccc(C)cc2)c(=O)[nH]1 (centres undefined),AC50,[1],"0.651 µM [rising, full curve, poor fit]"
C[C@@]12C(=O)Nc3ccc(Br)cc3C(=O)N1[C@H]1c3cc(Br)ccc3OC[C@@H]1[C@@H]2c1ccccc1,AC50,[1],"0.731 µM [falling, partial curve, poor fit]"
Cc1ccc(N(C)S(=O)(=O)c2ccc(-c3cnc(C4CC4)o3)cc2)cc1,AC50,[1],"3.98 µM [rising, full curve]"
same,AC50,[2],"10 µM [falling, partial curve]"
C#CCOCCOCCOCCNc1nc(N2CCN(C(=O)CCCCCCCCCCNC(=O)[C@H](CCCCN)n3cc(CCO)nn3)CC2)nc(N2CCN(C(=O)CCCCCCCCCCNC(=O)[C@H](CCCCN)n3cc(CCCC(=O)O)nn3)CC2)n1,AC50,[1],"11.6 µM [rising, partial curve]"
CCCCNC(=S)N1CCN(C(c2ccccc2)c2ccccc2)CC1,AC50,[1],"3.55 µM [falling, full curve]"
Cc1cnc(C(=O)Nc2nccs2)cn1,AC50,[1],"11.2 µM [falling, partial curve, poor fit]"
Cc1cccc(C(=O)c2cnc3ccccc3c2-c2ccccc2)c1,AC50,[1],"16.4 µM [falling, partial curve, poor fit]"
CCOC(=O)N1CCC(Nc2c(NCCCN(C)Cc3ccccc3)c(=O)c2=O)CC1,AC50,[1],"16.4 µM [rising, partial curve, poor fit]"
COc1cc(C2C(C#N)=C(C)NC3=C2C(=O)c2ccccc23)cc(OC)c1OC (centres undefined),AC50,[1],"1.3 µM [rising, full curve]"
same,AC50,[2],"1.16 µM [falling, full curve]"
COc1cc(/C=N/OCC(=O)NC2CCCCC2C)ccc1OCc1ccc(Cl)cc1 (centres undefined),AC50,[1],"2.06 µM [rising, partial curve, poor fit]"
CCNc1ccc2noc3c2c1C(=O)c1ccccc1-3,AC50,[1],"0.13 µM [falling, full curve]"
CC1CC2(CCCCC2)N2C(=O)C(=O)c3cccc1c32 (centres undefined),AC50,[1],"11.2 µM [rising, single point]"
CCOc1ccc2[nH]c(C(=O)N/N=C/c3ccc(OC)cc3)cc2c1,AC50,[1],"7.08 µM [rising, full curve]"
same,AC50,[2],"10 µM [falling, partial curve]"
CCCOc1ccc(Cn2c(=O)oc3ccc(C)cc32)cc1,AC50,[1],"35.5 µM [rising, single point]"
Cc1ccc2c(CN3CCN(Cc4ccc5c(c4)OCO5)CC3)cc(=O)oc2c1C,AC50,[1],"6.51 µM [rising, single point]"

# For convenience, part of the list above.
smiles,measurement,setting,value
Cc1ccc(N(C)S(=O)(=O)c2ccc(-c3cnc(C4CC4)o3)cc2)cc1,AC50,[2],"10 µM [falling, partial curve]"
C#CCOCCOCCOCCNc1nc(N2CCN(C(=O)CCCCCCCCCCNC(=O)[C@H](CCCCN)n3cc(CCO)nn3)CC2)nc(N2CCN(C(=O)CCCCCCCCCCNC(=O)[C@H](CCCCN)n3cc(CCCC(=O)O)nn3)CC2)n1,AC50,[1],"11.6 µM [rising, partial curve]"
